We go through 27 molecules from the supplement of paper PMC10735217.

The assay has as its system HEK293A TEAD-LUC reporter. Description: TEAD-luciferase reporter activity (YAP activation), robust Z score vs plate; higher = stronger YAP/TEAD activation. The note with it: 24 h.

The list shows a part of the results. Single values are uncertain here, since repeats match poorly.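 In a drug-repurposing library screen, luminescence reads luciferase driven by eight TEAD-binding elements, stably integrated into human kidney-derived cells. Compounds scoring over five robust Z scores above the plate mean are called hits.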

`COC(=O)CCN1C(=O)NC(Cc2ccccc2)(c2ccccc2)C1=O` (centres undefined): the TEAD-luciferase reporter activity (compound concentration: 200 nM) was inactive: 0.65, the TEAD-luciferase reporter activity (compound concentration: 2 uM) was inactive: 0.114 and the TEAD-luciferase reporter activity (compound concentration: 10 uM) is inactive: 1.05.

On to `N=C(N)c1ccc(/C=C/c2ccc(C(=N)N)cc2O)cc1` [Hydroxystilbamidine bis(methanesulfonate], for which the TEAD-luciferase reporter activity reads like this: (compound concentration: 200 nM) inactive: 0.99; (compound concentration: 10 uM) inactive: 0.768.

Take `CC(C)=CCOc1cc(NC(=O)c2cccnc2)ccc1Cl`: the TEAD-luciferase reporter activity is, setting by setting: (compound concentration: 200 nM) inactive: -0.808; (compound concentration: 2 uM) inactive: -0.828; (compound concentration: 10 uM) inactive: 1.81.

As to `Cc1nc(N(C)C(=O)Cc2ccc(-c3ccccn3)cc2)sc1S(N)(=O)=O`, the TEAD-luciferase reporter activity runs as follows: (compound concentration: 200 nM) inactive: 0.55; (compound concentration: 2 uM) inactive: 0.226; (compound concentration: 10 uM) inactive: 1.76.

Consider `Cc1nc(N(C)C(=O)Cc2ccc(-c3ccccn3)cc2)sc1S(N)(=O)=O` [Pritelivir], for which the TEAD-luciferase reporter activity (compound concentration: 2 uM) is inactive: -2.12.

As for `CC(COc1ccccc1)N[C@@H](CO)[C@H](O)c1ccccc1` (some centres undefined), the TEAD-luciferase reporter activity was inactive: -0.0751 (compound concentration: 200 nM), inactive: -0.333 (compound concentration: 2 uM) and inactive: 2.53 (compound concentration: 10 uM).

Consider `N=C(NC(N)=O)Nc1c(Cl)cccc1Cl` [Biclodil], for which the TEAD-luciferase reporter activity runs as follows: (compound concentration: 200 nM) inactive: -0.823; (compound concentration: 2 uM) inactive: 1.02; (compound concentration: 10 uM) inactive: -1.55.

Turning to `CC(C)[C@H](NC(=O)OCc1ccccn1)C(=O)N[C@@H](Cc1ccccc1)[C@@H](O)C[C@H](Cc1ccccc1)NC(=O)OCc1cccnc1`, the TEAD-luciferase reporter activity reads like this: (compound concentration: 200 nM) inactive: -1.24; (compound concentration: 2 uM) inactive: -1.29; (compound concentration: 10 uM) inactive: -0.834.

For the molecule `NC(=O)c1ccc(I)c([N+](=O)[O-])c1` [Iniparib], the TEAD-luciferase reporter activity is, setting by setting: (compound concentration: 200 nM) inactive: 2.43; (compound concentration: 2 uM) inactive: -0.935; (compound concentration: 10 uM) inactive: -0.496.

As to `O=C(N[C@@H]1COc2nc([N+](=O)[O-])cn2C1)OCc1ccc(OC(F)(F)F)cc1`, the TEAD-luciferase reporter activity is, setting by setting: (compound concentration: 200 nM) inactive: 0.0648; (compound concentration: 2 uM) inactive: 0.716; (compound concentration: 10 uM) inactive: 2.26.

Turning to `CCOc1ccc2c(-c3cccc(F)c3)nn(CC(=O)N(C)c3ccc4nc(C)oc4c3)c(=O)c2c1`, the TEAD-luciferase reporter activity is, setting by setting: (compound concentration: 200 nM) inactive: -0.415; (compound concentration: 2 uM) inactive: 0.816; (compound concentration: 10 uM) inactive: -0.0698.

Regarding `CCOC(=O)CCc1nsnc1OCC(O)CNC(C)(C)C` (centres undefined), the TEAD-luciferase reporter activity (compound concentration: 200 nM) was inactive: -0.52, the TEAD-luciferase reporter activity (compound concentration: 2 uM) is inactive: -0.943 and the TEAD-luciferase reporter activity (compound concentration: 10 uM) is inactive: -0.925.

Turning to `CC(C)c1nnc(-c2ccc(-c3ccccc3)nc2)n1-c1cccc2nonc12`, the TEAD-luciferase reporter activity is, setting by setting: (compound concentration: 200 nM) inactive: 0.431; (compound concentration: 2 uM) inactive: -0.0498; (compound concentration: 10 uM) inactive: -1.94.

As to `O=C(O)[C@@H](O)[C@H](O)[C@H](O)[C@@H](O)C(=O)O` [Mucic acid], the TEAD-luciferase reporter activity is inactive: 2.19 (compound concentration: 200 nM), inactive: -1.22 (compound concentration: 2 uM) and inactive: -0.228 (compound concentration: 10 uM).

With `COC1(C2=NCCN2)COc2ccccc2O1` (centres undefined) [Methoxy-idazoxan], for the setting “compound concentration: 2 uM”, the TEAD-luciferase reporter activity was inactive: 1.29.

Take `COC1(C2=NCCN2)COc2ccccc2O1` (centres undefined): the TEAD-luciferase reporter activity was inactive: -1.2 (compound concentration: 200 nM) and inactive: 0.889 (compound concentration: 10 uM).

For the molecule `OC(=O)C[C@@H]1CCC(CC1)[C@H]1CCCN1c1ncc(cc1CN(c1nnn(n1)C)Cc1cc(cc(c1)C(F)(F)F)C(F)(F)F)C(F)(F)F` (some centres undefined) [analog of TAK-472], the TEAD-luciferase reporter activity (compound concentration: 200 nM) was inactive: -1.28, the TEAD-luciferase reporter activity (compound concentration: 2 uM) was inactive: -0.128 and the TEAD-luciferase reporter activity (compound concentration: 10 uM) was inactive: 1.27.

Consider `COc1cc(Cl)cc(C(C)Nc2cc(N3CCNCC3)ccc2S(C)(=O)=O)c1OC` (centres undefined), for which the TEAD-luciferase reporter activity was inactive: -1.57 (compound concentration: 200 nM), inactive: -1.44 (compound concentration: 2 uM) and inactive: 0.862 (compound concentration: 10 uM).

For the molecule `CC1CCCC(C)N1CCCC(O)(c1ccccc1)c1ccccn1` (centres undefined), the TEAD-luciferase reporter activity (compound concentration: 200 nM) was inactive: -0.27, the TEAD-luciferase reporter activity (compound concentration: 2 uM) was inactive: 0.299 and the TEAD-luciferase reporter activity (compound concentration: 10 uM) is active: 7.

As to `CCn1cc([C@@]2(c3nn(C)c(=O)o3)N[C@@H](c3nc(-c4ccc(F)cn4)c[nH]3)Cc3c2[nH]c2ccccc32)cn1`, the TEAD-luciferase reporter activity reads like this: (compound concentration: 200 nM) inactive: -0.961; (compound concentration: 2 uM) inactive: 0.134; (compound concentration: 10 uM) inactive: 0.777.

On to `FC(F)(F)C(F)(F)C(F)(F)N(C(F)(F)C(F)(F)C(F)(F)F)C(F)(F)C(F)(F)C(F)(F)F` [Perfluamine], for which the TEAD-luciferase reporter activity (compound concentration: 200 nM) was inactive: -0.14, the TEAD-luciferase reporter activity (compound concentration: 2 uM) was inactive: -0.145 and the TEAD-luciferase reporter activity (compound concentration: 10 uM) is inactive: 1.16.

For the molecule `CO[C@H]1CO[C@H]2[C@@H]1OC[C@H]2OC` [dimethyl isosorbide], where the note is “compound concentration: 2 uM”, the TEAD-luciferase reporter activity is inactive: -1.49.

Regarding `CO[C@H]1CO[C@H]2[C@@H]1OC[C@H]2OC` [dimethyl isosorbide, ResCo], the TEAD-luciferase reporter activity is, setting by setting: (compound concentration: 200 nM) inactive: 0.304; (compound concentration: 10 uM) inactive: 1.79.

For `O=C(OC[C@H]1O[C@@H](Oc2ccccc2CO)[C@H](O)[C@@H](O)[C@@H]1O)c1ccccc1`, the TEAD-luciferase reporter activity runs as follows: (compound concentration: 200 nM) inactive: -0.886; (compound concentration: 2 uM) inactive: -0.56; (compound concentration: 10 uM) inactive: 0.919.

Regarding `CN1CCN(c2ncc(Sc3cccc(NC(=O)CN)c3)c(OCc3ccccc3)n2)CC1`, the TEAD-luciferase reporter activity is, setting by setting: (compound concentration: 200 nM) inactive: -0.937; (compound concentration: 2 uM) inactive: -1.59; (compound concentration: 10 uM) inactive: 1.96.

As to `CCS(=O)(=O)c1ccc2oc(-c3ccc4ccccc4c3)nc2c1` [Ezutromid], the TEAD-luciferase reporter activity (compound concentration: 2 uM) was inactive: -0.0399.

As to `CCS(=O)(=O)c1ccc2oc(-c3ccc4ccccc4c3)nc2c1`, the TEAD-luciferase reporter activity (compound concentration: 200 nM) was active: 5.73 and the TEAD-luciferase reporter activity (compound concentration: 10 uM) is inactive: -0.452.
